# Source: US20220106381A1
# Protein sequences, listed by entry. Tags and fused reporters are not part of them. Lines headed by an entry give the natural chain unless they say otherwise; changes in a name come on top.
# UniProt P25942: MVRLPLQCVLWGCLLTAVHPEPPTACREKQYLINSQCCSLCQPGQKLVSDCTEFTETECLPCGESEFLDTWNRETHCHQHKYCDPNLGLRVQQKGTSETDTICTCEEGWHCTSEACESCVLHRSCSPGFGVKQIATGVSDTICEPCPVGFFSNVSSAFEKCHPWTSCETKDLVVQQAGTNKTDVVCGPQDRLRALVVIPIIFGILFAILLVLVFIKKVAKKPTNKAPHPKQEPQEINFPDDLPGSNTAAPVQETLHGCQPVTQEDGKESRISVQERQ
# Results are given in words; binding and its absence hold for the method and conditions named. Some results given as binding are weak or reduced against the parent protein; the word gives no strength.
# Key:
# [1] = target: CD40 on blood cells of type-I diabetic and non-diabetic (control) subjects (Homo sapiens (Human)) (UniProt P25942); test: whole blood incubated with biotin-conjugated peptide, HRP-avidin, absorbance at 405 nm
# [2] = target: CD40 on blood cells of type-I diabetic and non-diabetic (control) subjects (Homo sapiens (Human)) (UniProt P25942); test: whole blood incubated with biotin-conjugated 15-mer peptide, HRP-avidin, absorbance at 405 nm; sheet title 'ELISA measuring CD40 in blood samples'
binder,measurement,setting,value
VLQWAKKGYYTMKSK (biotin-conjugated (position not given)) [biotin-conjugated 15-mer peptide from CD154],binding,[1],binds
same,binding,[2],binds
